Data as given in patent publication US11865126B2, “Method for treating anxiety disorders, headache disorders, and eating disorders with psilocybin” (priority 2019, dated 2024).
Entries after “also recorded” stand apart in the source; their conditions may differ. For at least one compound, name, drawing or mass did not settle the structure.

Columns and labels:
[1] = tested on: healthy subjects; experiment: Reading the Mind in the Eyes Test (RMET); assay type: in vivo, human; details: 10 mg and 25 mg, Day 7 and Day 84
From the text: In some embodiments, Reading the Mind in the Eyes Test (RMET) is utilized to evaluate the safety and/or efficacy of psilocybin. The RMET has 36 items, in which subjects are presented with a photograph of the eyes region of the face and must choose 1 of 4 adjectives or phrases to describe the mental state of the person pictured. A definition handout is provided at the beginning of the task and a practice item precedes the first trial.
The following list of outcome measures are non-exhaustive. • a. The short-term change from Baseline (Day −1 [Visit 2]) to Day 7 (Visit 5) in cognitive measures of attention, spatial and working memory and executive function was measured by a composite score of the CANTAB Panel (Spatial Working Memory [SWM], Rapid Visual Information Processing [RVP], Paired Associates Learning [PAL]). • b. The short-term change from Baseline (Day −1 [Visit 2]) to Day 7 (Visit 5) in Social Cognition Panel scales (Pictorial Empathy Test [PET], Reading the Mind in the Eyes Test [RMET], Toronto Empathy Questionnaire [TEQ], Social Value Orientation [SVO], Scale of Social Responsibility [SSR]). • c. The change from Baseline (Day −1 [Visit 2]) to Day 28 (Visit 6) in cognitive measures of attention, spatial and working memory and executive function as measured by a composite score of the CANTAB Panel (SWM, RVP, PAL). • d. […]

[2] = tested on: Wistar-Kyoto (WKY) rats; experiment: Wakefulness, NREM and REM sleep amounts (EEG/EMG telemetry); assay type: in vivo, rat; details: dark period, at the expense of wakefulness
[3] = tested on: glucagon (Gcg); experiment: Olink Mouse Exploratory Panel, plasma protein expression: Gcg; assay type: in vivo; details: 10 mg/kg, 1 hour
[4] = tested on: C57BL/6 mice; experiment: Marble Burying (MB) test; assay type: in vivo, mouse; details: 10 mg/kg IP, 1 hour post-treatment; p<0.001

SMILES: CN(C)CCc1c[nH]c2cccc(OP(=O)(O)O)c12 [psilocybin]
- RMET, change from baseline compared to placebo [1]: No differences among treatment groups; also recorded: no difference; also recorded: no consistent or noteworthy trends
- NREM sleep amount [2]: slight but significant increase in the amount of NREM sleep
- Glucagon (Gcg) plasma protein expression vs vehicle [3]: increased
- Number of marbles buried vs vehicle PS [4]: significantly reduced the number of marbles buried
